Several values for one entry are separate records, joined by “and”; a condition that tells them apart may be missing. Equal entries are not always repeated. The list shows a part of the results. Shown are side measurements of this screen, not its main read-out; they come without a call. The list favours compounds with an active or inconclusive main result. Potencies come from curve fits of mixed quality, noted in brackets.
Experiment: Cell signaling CRE-BLA (Fsk stim)
Conditions: CHO CRE-bla reporter (cAMP response element driving beta-lactamase), forskolin EC10, beta-lactamase ratio; measured here: 460 nm blue channel
Summary of the method: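 qHTS titration format; CRE-bla CHO reporter; stimulus EC10 NKH 477, a water-soluble forskolin. Read: CCF4 460/530 nm ratio. Potency expressed as AC50 for activators or inhibitors.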

Row | SMILES | AC50
1 | CN(C)c1ncc2nc(-c3ccccc3)c(=O)n(Cc3ccc(F)cc3)c2n1 | 1.58 µM [rising, partial curve]
2 | N#Cc1nc(COc2ccccc2F)oc1NCCc1ccccc1 | 5.01 µM [falling, partial curve, poor fit]
3 | Cc1ccc(C(=O)CSc2nnc(-c3cccnc3)n2N)cc1 | 10 µM [rising, single point]
4 | Cn1ccnc1SC(=O)N1c2ccccc2Sc2ccccc21 | 1 µM [falling, partial curve]
5 | CCCCOc1ccc(C(C)(O)CCN2CCOCC2)cc1 (stereo not drawn) | 3.98 µM [falling, single point]
6 | CC(=O)NCCNc1ncnc2ccc(-c3ccccc3C#N)cc12 | 6.31 µM [rising, partial curve]
7 | CN1C2CCC1CC(OC(=O)c1c[nH]c3ccccc13)C2 (stereo not drawn) | 0.00398 µM [falling, full curve, poor fit]
8 | COc1ccccc1-c1ccc2ncnc(N3CCOCC3)c2c1 | 0.501 µM [rising, single point]
9 | COc1cccc(Nc2ncc3nc(-c4cc(F)cc(F)c4)c(=O)n(C4CC4)c3n2)c1 | 1.26 µM [rising, partial curve]
10 | CCCc1cc(C(N)=O)c(NC(=O)c2ccoc2C)s1 | 10 µM [rising, partial curve]
11 | COc1ccc(OC)c(C(C(=O)NCc2ccco2)N(C(=O)Cn2nnc3ccccc32)C(C)C)c1 (stereo not drawn) | 25.1 µM [falling, single point]
12 | O=C(CCn1nnc2ccccc2c1=O)N[C@@H](Cc1ccccc1)C(=O)O | 1 µM [rising, partial curve]
13 | CCc1c(C)nc2cc(-c3cc(OC)cc(OC)c3)nn2c1N1CCCC1 | 5.01 µM [rising, partial curve]
14 | CCN1C(=O)/C(=C2/C=CC=CN2C)SC1=S | 0.316 µM [rising, partial curve]
15 | COc1ccc(C)cc1NC(=O)c1cnc2sccn2c1=O | 10 µM [rising, partial curve]
16 | COc1ccc(-c2nc3cnc(OC)nc3n(C[C@H]3CCCO3)c2=O)cc1 | 12.6 µM [rising, partial curve]
17 | CCCCc1ccc(Nc2ncnc3nc[nH]c23)cc1 | 10 µM [rising, partial curve]
18 | CC(=O)N1CCc2cc(S(=O)(=O)NCCC(=O)Nc3ccc4c(c3)OCCO4)ccc21 | 0.0251 µM [falling, full curve, poor fit]
19 | O=C(OCCN1C(=O)c2ccccc2C1=O)c1cccc(OC(F)F)c1 | 3.98 µM [falling, partial curve]
20 | Cn1c(=O)oc2cc(S(=O)(=O)Nc3ccc4c(c3)OCCO4)ccc21 | 5.01 µM [falling, single point]
21 | CC(C)Nc1oc(-c2cccc3ccccc23)nc1C#N | 12.6 µM [rising, partial curve]
22 | COc1c2occc2cc2ccc(=O)oc12 | 10 µM [rising, partial curve] and 15.8 µM [rising, partial curve] and 10 µM [rising, single point]

Filtered by structure: those above containing an NH in an aromatic ring.
Row | SMILES | AC50
7 | CN1C2CCC1CC(OC(=O)c1c[nH]c3ccccc13)C2 (stereo not drawn) | 0.00398 µM [falling, full curve, poor fit]
17 | CCCCc1ccc(Nc2ncnc3nc[nH]c23)cc1 | 10 µM [rising, partial curve]

The listing continues:

Row | SMILES | AC50
23 | Cc1ccc(CCNC(=O)NC(C)(C)C)cc1 | 0.00316 µM [falling, full curve, poor fit]
24 | CCc1cc2cc(C)ccc2nc1SCC(=O)N1CCN(C(=O)c2ccco2)CC1 | 15.8 µM [rising, single point]
25 | Oc1ccc(N=Cc2ccc(O)c(O)c2)cc1 | 15.8 µM [falling, partial curve]
26 | O=C1C=C(NCC2CCCO2)C2(CCCCC2)O1 (stereo not drawn) | 0.0501 µM [falling, full curve, poor fit]
27 | CCOc1ncccc1C(=O)Nc1ccc(-c2cn3ccsc3n2)cc1 | 5.01 µM [rising, partial curve]
28 | COC(=O)CS(=O)(=O)c1nnc([C@H](Cc2ccccc2)NC(=O)OC(C)(C)C)o1 | 20 µM [falling, partial curve, poor fit]
29 | CC(CCc1ccccc1)C(=O)NO (stereo not drawn) | 0.794 µM [falling, partial curve]
30 | CC(C)n1c(=N)c(C(=O)NCCc2ccccc2)cc2c(=O)n3ccccc3nc21 | 12.6 µM [rising, partial curve]
31 | Cc1cc(Cl)c(S(=O)(=O)NCC2CCCO2)cc1OCC(N)=O (stereo not drawn) | 2.51 µM [falling, single point]
32 | CCC(Sc1nc(=O)cc(N)n1-c1ccccc1)C(=O)Nc1cc(C)on1 (stereo not drawn) | 1 µM [falling, partial curve, poor fit]
33 | CN1CCN(C2=Nc3ccccc3Oc3ccc(Cl)cc32)CC1 | 12.6 µM [falling, single point]
34 | Cc1cccc2sc(NC(=O)CN(C)S(=O)(=O)c3ccc(Br)s3)nc12 | 10 µM [falling, partial curve]
35 | c1ncc(-c2ccc3c(c2)OCO3)c(NCCc2cnc[nH]2)n1 | 0.1 µM [falling, full curve, poor fit]
36 | CCc1nc(N2CCN(C(=O)c3ccco3)CC2)c2oc3ccccc3c2n1 | 6.31 µM [rising, partial curve]
37 | CCN(CC)C(=O)Oc1ccc2c(=O)c(-c3ccc(OC)cc3)coc2c1 | 12.6 µM [falling, single point]
38 | Cc1nc(NC2=NCN(CCc3ccccc3)CN2)nc2c(C)cccc12 | 25.1 µM [rising, single point]
39 | COc1ncc2nc(-c3cn(C)c4ccccc34)c(=O)n(Cc3ccc(F)cc3)c2n1 | 5.01 µM [rising, partial curve]
40 | CCOC(=O)c1c(-c2ccc(C)o2)csc1NC(=O)CSc1nnc(C)s1 | 10 µM [rising, single point]
41 | CN(Cc1cnc2nc(N)nc(N)c2n1)c1ccc(C(=O)N[C@H](CCC(=O)O)C(=O)O)cc1 | 31.6 µM [rising, single point]
42 | C=CCNC(=O)c1ccc(C(=O)c2ccccc2)cc1 | 5.01 µM [falling, single point]
43 | Cc1c(C(=O)NCCN2CCOCC2)oc2ccccc12 | 0.00794 µM [falling, full curve]
